Source: publication PMC3696004
No constants are given. Whether binding was seen depends on the method and setting. Binding seen in cells or lysates may run through a third protein. Some results given as binding are weak or reduced against the parent protein; the word gives no strength. Blank lines part the entries; values can stand above or below the binder they belong to.

Experiments:
[1] = biological target: T1, native human complement factor H (CFH), commercial, purified from pooled serum (human), P08603; assay: co-IP; day 7 serum-free ARPE-19 conditioned medium with or without 2 µg added human CFH; IP with biotinylated anti-CFH antibody and streptavidin magnetic beads; Western blot with rabbit anti-Fib3; only the target purified; settings: remark: other sources report otherwise
T1 chain: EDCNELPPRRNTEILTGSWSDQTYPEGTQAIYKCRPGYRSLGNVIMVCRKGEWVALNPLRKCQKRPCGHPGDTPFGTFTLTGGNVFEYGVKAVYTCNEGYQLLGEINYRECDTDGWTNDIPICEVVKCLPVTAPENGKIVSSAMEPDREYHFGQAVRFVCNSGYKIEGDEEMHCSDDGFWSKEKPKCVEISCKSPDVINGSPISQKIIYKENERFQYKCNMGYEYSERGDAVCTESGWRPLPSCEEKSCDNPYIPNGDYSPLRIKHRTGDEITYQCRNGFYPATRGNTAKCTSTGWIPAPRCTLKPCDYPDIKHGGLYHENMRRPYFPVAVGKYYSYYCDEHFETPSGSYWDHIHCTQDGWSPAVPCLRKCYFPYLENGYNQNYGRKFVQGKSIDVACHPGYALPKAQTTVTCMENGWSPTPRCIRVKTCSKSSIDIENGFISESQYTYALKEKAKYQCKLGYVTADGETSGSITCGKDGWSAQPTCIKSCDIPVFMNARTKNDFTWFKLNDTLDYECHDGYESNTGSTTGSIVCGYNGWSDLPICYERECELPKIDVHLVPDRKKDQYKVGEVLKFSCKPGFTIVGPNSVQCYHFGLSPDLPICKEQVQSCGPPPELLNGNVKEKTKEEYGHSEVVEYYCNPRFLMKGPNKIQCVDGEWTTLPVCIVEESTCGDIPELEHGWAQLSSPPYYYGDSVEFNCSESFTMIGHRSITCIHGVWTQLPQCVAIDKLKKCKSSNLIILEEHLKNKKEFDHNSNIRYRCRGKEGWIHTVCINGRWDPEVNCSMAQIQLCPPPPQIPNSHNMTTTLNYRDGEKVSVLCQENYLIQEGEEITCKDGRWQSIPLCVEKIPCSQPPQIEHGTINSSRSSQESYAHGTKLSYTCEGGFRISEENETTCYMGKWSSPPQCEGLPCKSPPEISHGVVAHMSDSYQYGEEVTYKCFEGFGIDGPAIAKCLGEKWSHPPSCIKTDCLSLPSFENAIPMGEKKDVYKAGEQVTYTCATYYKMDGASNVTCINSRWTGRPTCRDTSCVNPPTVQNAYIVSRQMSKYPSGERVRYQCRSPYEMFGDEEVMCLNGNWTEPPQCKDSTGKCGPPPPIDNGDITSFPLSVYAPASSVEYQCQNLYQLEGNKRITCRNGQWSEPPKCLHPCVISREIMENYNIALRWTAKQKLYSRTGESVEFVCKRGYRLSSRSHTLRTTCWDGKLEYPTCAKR

[2] = biological target: T2, native human Fib3 secreted by serum-starved ARPE-19 cells (human (endogenous in ARPE-19)), Q12805; assay: co-IP; serum-free conditioned medium of ARPE-19 (or HEK293) cells with 0, 2 or 5 µg/ml added purified human CFH; IP with biotinylated anti-Fib3 antibody and streptavidin magnetic beads, overnight at 4°C; Western blot with anti-CFH; only the binder purified; settings: remark: other sources report otherwise
T2 chain: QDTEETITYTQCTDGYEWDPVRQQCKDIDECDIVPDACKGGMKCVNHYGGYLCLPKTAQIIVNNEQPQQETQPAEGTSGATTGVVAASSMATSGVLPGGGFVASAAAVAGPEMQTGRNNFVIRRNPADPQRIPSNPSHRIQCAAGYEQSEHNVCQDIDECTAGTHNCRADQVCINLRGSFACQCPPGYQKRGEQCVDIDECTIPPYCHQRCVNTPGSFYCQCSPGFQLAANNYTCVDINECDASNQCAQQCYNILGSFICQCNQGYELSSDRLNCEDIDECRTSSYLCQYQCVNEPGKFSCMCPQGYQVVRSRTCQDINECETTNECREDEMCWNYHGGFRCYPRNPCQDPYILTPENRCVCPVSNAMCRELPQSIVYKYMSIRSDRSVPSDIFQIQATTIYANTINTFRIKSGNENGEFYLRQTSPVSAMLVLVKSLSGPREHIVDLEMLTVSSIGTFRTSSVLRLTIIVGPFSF

- binding [1]: binds
B1: native human Fib3 secreted by serum-starved ARPE-19 cells, Q12805 18-493 (protein)
chain: T2 chain

- binding [2]: binds
B2: native human complement factor H (CFH), commercial, purified from pooled serum, P08603 19-1231 (protein)
chain: T1 chain
